Test results as given in paper PMC10235437.
These are yes or no findings as the source states them, for the method shown. Binding seen in cells or lysates may run through a third protein. Some entries that bind do so weakly or less than the wild type.

Amino acid sequences for entries named in this document (tags omitted).
UniProt Q13951: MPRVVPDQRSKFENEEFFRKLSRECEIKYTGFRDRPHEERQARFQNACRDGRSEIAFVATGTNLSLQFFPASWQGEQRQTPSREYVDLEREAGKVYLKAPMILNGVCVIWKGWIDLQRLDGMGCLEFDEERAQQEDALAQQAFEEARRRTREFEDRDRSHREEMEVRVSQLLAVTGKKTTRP

Target: T1, E2F transcription factor 7 (E2F7), endogenous (human (endogenous in HONE-1 and SUNE-1)) (UniProt Q96AV8)
T1 sequence: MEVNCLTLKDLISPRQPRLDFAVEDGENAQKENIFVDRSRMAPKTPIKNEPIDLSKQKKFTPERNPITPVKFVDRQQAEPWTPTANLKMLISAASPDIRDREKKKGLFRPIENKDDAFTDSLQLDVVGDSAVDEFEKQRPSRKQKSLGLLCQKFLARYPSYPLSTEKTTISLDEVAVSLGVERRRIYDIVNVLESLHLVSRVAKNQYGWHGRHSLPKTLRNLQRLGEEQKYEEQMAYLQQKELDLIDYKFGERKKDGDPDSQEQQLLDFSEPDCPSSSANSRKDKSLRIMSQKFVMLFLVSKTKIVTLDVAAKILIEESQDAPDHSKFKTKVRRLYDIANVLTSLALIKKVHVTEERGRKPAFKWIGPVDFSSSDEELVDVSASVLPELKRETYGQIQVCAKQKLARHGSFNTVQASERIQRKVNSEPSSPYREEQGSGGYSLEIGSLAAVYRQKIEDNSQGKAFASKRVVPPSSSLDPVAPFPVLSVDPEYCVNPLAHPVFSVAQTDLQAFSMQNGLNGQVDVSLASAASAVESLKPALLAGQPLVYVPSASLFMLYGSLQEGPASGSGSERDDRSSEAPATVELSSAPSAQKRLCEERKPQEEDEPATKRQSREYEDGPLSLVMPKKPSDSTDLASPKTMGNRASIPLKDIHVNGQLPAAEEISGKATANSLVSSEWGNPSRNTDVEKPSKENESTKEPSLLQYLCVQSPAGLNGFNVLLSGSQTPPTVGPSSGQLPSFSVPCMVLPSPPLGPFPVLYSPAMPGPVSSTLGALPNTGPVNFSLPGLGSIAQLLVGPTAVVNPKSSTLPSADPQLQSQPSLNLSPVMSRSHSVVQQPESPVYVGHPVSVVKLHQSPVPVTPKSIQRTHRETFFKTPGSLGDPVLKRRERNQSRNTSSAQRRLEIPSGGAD
Assay: co-IP; anti-E2F7 antibodies or normal rabbit IgG, endogenous proteins in HONE-1 and SUNE-1 lysates, Western blotting

## Core-binding factor subunit beta (CBFB), endogenous (from UniProt Q13951 1-182)
  binding: binds
